Measured values as given in patent publication US7169892B2 (Astellas Pharma Inc., priority 2003, dated 2007).
Where no end group is shown, it is not given here. The star is where a group is joined. Fmoc = O=C(OCC1c2ccccc2-c2ccccc21)*

Assay: general procedure: Fmoc solid-phase peptide synthesis; Fmoc-Gly-Wang Resin; HBTU/DIEA
Conditions: whole synthesis
[1] = RP-HPLC peak surface area ratio

Row | Substance | final HPLC purity [1] [%] | final HPLC purity (RP-HPLC peak area ratio) [%]
1 | Fmoc-GPLGIAGQG | 98.7 | 
2 | 9-fluorenylmethyloxycarbonyl (Fmoc)-glycyl-prolyl-glutamyl-glycyl-isoleucyl-alanyl-glycyl -tryptophanyl-glycine |  | 99.5
3 | Fmoc-GPQGIWGQG | 98.4 | 
